Assay results taken from US5932546A, “Peptides and compounds that bind to the thrombopoietin receptor” (Glaxo Wellcome Inc., priority 1996, dated 1999).
pIC50: −log10 of the molar value. Part of at least one peptide drawing is inferred or uncertain, most often the ends. Where a SMILES comes first, the peptide text is derived from it. Bridges are numbered along the chain shown (N, C = ends). Roman numbers before positions name the chains, in order. Where no end group is shown, it is not given here.

Target: T1, extracellular domain of the TPO receptor (TPO-R) (Homo sapiens, UniProt P40238)
T1 construct: made in house; host or cells: CHO cells (PIG-tailed receptor released by phospholipase C)
T1 sequence (P40238 26-491 limits assumed): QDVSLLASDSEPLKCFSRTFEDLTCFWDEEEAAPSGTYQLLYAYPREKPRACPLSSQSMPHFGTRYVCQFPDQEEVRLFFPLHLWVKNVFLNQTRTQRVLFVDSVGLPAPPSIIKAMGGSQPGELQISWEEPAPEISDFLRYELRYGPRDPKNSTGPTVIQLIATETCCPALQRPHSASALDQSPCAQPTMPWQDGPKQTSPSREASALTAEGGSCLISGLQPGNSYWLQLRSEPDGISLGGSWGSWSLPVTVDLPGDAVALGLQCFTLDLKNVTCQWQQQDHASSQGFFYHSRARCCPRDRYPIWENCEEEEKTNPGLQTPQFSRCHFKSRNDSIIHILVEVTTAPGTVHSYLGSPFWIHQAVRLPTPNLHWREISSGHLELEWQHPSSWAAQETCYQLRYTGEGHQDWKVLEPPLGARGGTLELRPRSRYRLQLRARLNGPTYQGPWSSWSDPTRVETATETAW
Experiment: competition binding assay / equilibrium binding ELISA (inhibition of MBP-TPO binding to immobilized TPO-R)
Conditions: free synthetic peptide, read-out: Affinity (IC50)

| Compound | pIC50 |
| --- | --- |
| CC[C@H](C)[C@H](NC(=O)[C@@H](NC(=O)[C@H](CCC(N)=O)NC(=O)[C@H](CCC(=O)O)NC(=O)[C@H](CCCNC(=N)N)NC(=O)[C@@H](NC(=O)CNC(=O)[C@H](CCCNC(=N)N)NC(=O)[C@@H]1CCCN1C(=O)[C@H](CC(=O)O)NC(=O)[C@@H](N)CCC(N)=O)C(C)C)C(C)C)C(=O)N[C@@H](C)C(=O)N[C@@H](CCCNC(=N)N)C(=O)N[C@@H](CC(C)C)C(=O)N[C@@H](CSSC[C@H](NC(=O)[C@H](CC(C)C)NC(=O)[C@H](CCCNC(=N)N)NC(=O)[C@H](C)NC(=O)[C@@H](NC(=O)[C@@H](NC(=O)[C@H](CCC(N)=O)NC(=O)[C@H](CCC(=O)O)NC(=O)[C@H](CCCNC(=N)N)NC(=O)[C@@H](NC(=O)CNC(=O)[C@H](CCCNC(=N)N)NC(=O)[C@@H]1CCCN1C(=O)[C@H](CC(=O)O)NC(=O)[C@@H](N)CCC(N)=O)C(C)C)C(C)C)[C@@H](C)CC)C(=O)O)C(=O)O [Q D P R G V R E Q V I A R L C] (I: H-QDPRGVREQVIARLC-OH / II: H-QDPRGVREQVIARLC-OH; disulfide I:15-II:15) | ≥ 6.30 |
| GRVRDQIMLSLGG [G R V R D Q I M L S L G G] | < 4.00 |
